Test results: PubChem BioAssay AID1259415 (National Center for Advancing Translational Sciences (NCATS), 2018)
Screen size: about 410,000 compounds; about 18,000 (4.4%) were called active. The shares of active, inactive and inconclusive entries below differ from those in the screen. Cut-off read from the data, not from the text of the source: active = activity change below about -60%; inconclusive = no clear call, values can overlap the other calls; inactive = above about -39%.
% is set by controls: 0 for no effect and ±100 for the full control effect.

Assay: qHTS Assay for inhibitors of the human cytomegalovirus (HCMV)
Conditions: HFF cells, HCMV-luciferase reporter, 72 h; at 57.5 µM; hits give low values
Procedure, shortened: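 After 16 h attachment at 37C, HFF cells received test compound and HCMV-luciferase (1 PFU/cell); reporter luminescence read 72 h later, data normalized against buffer-only and known inhibitor Salinomycin.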
For CC(C)(C)OC(=O)N1CCC(c2c(C(=O)N3CCN(C(=O)c4ccco4)CC3)cnn2-c2cccc(F)c2)CC1, the activity change, negative = inhibition was inconclusive: 0%. For CC(C)COP(=O)(c1ccc(N(C)C)cc1)C(O)c1ccc(Br)cc1 (stereo not given), the activity change, negative = inhibition was inconclusive: -48.3%. In the case of CN(C)CC(C(=O)c1ccccc1)c1ccccc1 (stereo not given), the activity change, negative = inhibition is reported as inconclusive: -54.2%. For Fc1ccc(C(Nc2ccccn2)c2c[nH]c3ccccc23)cc1 (stereo not given), the activity change, negative = inhibition was inactive: 81.7%. For O=C(Cc1ccccc1)NN=C1CCCC1, the activity change, negative = inhibition was inactive: -11.5%. In the case of CC1(C)CC2(CC(c3ccccc3F)c3cc(Cl)c(O)cc3O2)NC(=S)N1 (stereo not given), the activity change, negative = inhibition is reported as inconclusive: -47.9%. With CCOC(=O)c1sc(=S)n(-c2ccc(C)cc2)c1SC the activity change, negative = inhibition was inconclusive: -50.3%. In the case of Cc1ccc(NC(=O)c2cc(C)nc3ccccc23)c(C)c1, the activity change, negative = inhibition is reported as inactive: -12.3%. For Cc1ccc(C)n1-c1sc2c(c1C#N)CCC(C)C2 (stereo not given), the activity change, negative = inhibition was inconclusive: -47.5%. In the case of O=C(COc1ccc(Cl)cc1Cl)NNC(=S)Nc1ccc(F)cc1, the activity change, negative = inhibition is reported as active: -103%. For O=C(Cn1nnc(-c2ccncc2)n1)Nc1ccc2c(c1)CCC2, the activity change, negative = inhibition was inconclusive: -46.8%. With COc1ccc(/C=C2\CCC(C3CCCC3)C2=O)cc1Cn1nc(C)cc1C (stereo not given) the activity change, negative = inhibition was inactive: 3.11%. With CC(C)OCCCNC(=O)c1ccc2c(c1)N(Cc1c(F)cccc1Cl)C(=O)c1ccccc1S2 the activity change, negative = inhibition was inconclusive: -49%. For Cc1cc(-n2c(SCC(=O)NCCC3=CCCCC3)nc3n[nH]c(C)c3c2=N)ccc1Cl, the activity change, negative = inhibition was inactive: -20.8%. For Cc1ccc(-c2ccc(/C=N/NC(=O)Cc3nnc(N)s3)o2)cc1Cl, the activity change, negative = inhibition was inconclusive: -60%. In the case of O=C1N(Cc2cccc(Cl)c2)C[C@@H]2C[C@@H](c3c[nH]c4ccccc34)N3CCC[C@@]123, the activity change, negative = inhibition is reported as inactive: 18.9%. In the case of O=CNCC(=O)NCCc1ccc(Cl)cc1, the activity change, negative = inhibition is reported as inconclusive: -42%. In the case of CCS(=O)(=O)N1CCC(C(=O)NC2CCCCC2)CC1, the activity change, negative = inhibition is reported as inconclusive: -40.4%. For Nc1nc2ccc(NC(=O)c3ccco3)cc2s1, the activity change, negative = inhibition was inconclusive: -53.1%. In the case of COc1ccc(NC(=O)c2ccc3c(c2)N(C)CCS3)cc1, the activity change, negative = inhibition is reported as inactive: 149%. In the case of c1ccc(CNc2c3ccccc3nc3ccccc23)cc1, the activity change, negative = inhibition is reported as active: -100%. With Cc1ccc2c(CN3CCN(S(=O)(=O)c4ccccc4C(F)(F)F)CC3)cc(=O)oc2c1 the activity change, negative = inhibition was inconclusive: -43.5%. With COc1ccc(OCC(O)CN(CC(O)COc2ccc(OC)cc2)c2cccc(O)c2)cc1 (stereo not given) the activity change, negative = inhibition was inconclusive: 0%. In the case of COc1ccc(-n2nc(C(=O)NCC(=O)N3CCOCC3)c3ccccc3c2=O)cc1Cl, the activity change, negative = inhibition is reported as inactive: 13.8%. For CCOC(=O)Cc1ccc(NC(=O)N2CCOc3ccc(C)cc32)cc1, the activity change, negative = inhibition was inactive: -3.15%.
